Test results: patent US20220259315A1
Results are given in words; binding and its absence hold for the method and conditions named. Some results given as binding are weak or reduced against the parent protein; the word gives no strength.

Target: PD-1 M17
Assay: flow cytometry, HeLa cells transiently transfected with PD-1 M17 [M17]

B1: 137F2 (antibody, V domains shown)
VH: QVQLQQPGAELVRPGTSVKMSCKAAGYTFTNYWIGWIKQRPGHGLEWIGDIYPGGGYTNYNEKFKGKATLTADTSSSTAYMQVSSLTSEDTGIYYCARGYDFVLDRWGQGTSVTVSS
VL: DIVMSQSPSSLAVSTGEKVTMTCKSSQSLFNSETQKNYLAWYQQKPGQPPKLLIFWASTRESGVPDRFLGSGSGTDFTLTISSVQAEDLAVYYCKQSYTLRTFGGGTKLEIK
Q: For B1, which binding is on record?
A: The binding was “binds”.
